Reference: patent publication US6451837B1, “Neuroprotective effects of mitogen-activated protein kinase (MAPK) cascade inhibitors” (priority 1999, dated 2002)
At least one compound was matched to its structure with a doubt left.

Columns and labels:
[1] = system: cultured hippocampal tissue explants; test: NMDA-induced cell death in cultured hippocampal slices, propidium iodide fluorescence; format: cell-based, Wistar rat
[2] = system: cultured hippocampal tissue explants; test: Cell death induced by transfer to fresh culture medium in cultured hippocampal slices, propidium iodide fluorescence; format: cell-based, Wistar rat; conditions: PD098059 30-90 μM for 2 hours prior, wortmannin 1 μM, FIG. 6
Protocol: Seven day old Wistar rat pups were anaesthetized with fluothane, decapitated and transverse hippocampal slices (400 microns) were cultured for 12 days on 6-well tissue culture plates containing 1 ml of culture medium. The medium composition was 50% minimal essential medium (MEM), 25% horse serum, 25% Earl's balanced salt solution with D-glucose and HEPES, penicillin G and streptomycin sulfate, 5000 units/ml and 5 μg/ml respectively and the pH, 7.15. Slices were cultured at 36.5° C., 100% humidity, 95% air and 5% CO2 atmosphere, and were fed twice weekly by 50% medium exchange. All drugs were dissolved in water or dimethylsulfoxide (DMSO, final concentration was 0.1%) to make stock solutions. Controls for DMSO effects were performed where appropriate. To apply a drug, the stock solution was dissolved in 1 ml of fresh culture medium to make a desired concentration. Then, hippocampal slices were transferred for a specified time interval to the fresh medium containing the drug. […] Cell death was measured as the PI fluorescence intensity by using MRC-600 Laser Scanning Confocal Imaging System. […] Each experiment was performed at least in triplicate, on 5-6 slices each time and data expressed as an average of all experiments. Cell death index was derived from PI fluorescence intensity normalized to the intensity values obtained after the 48 hour exposure of slices to an ambient temperature of 4° C. […]

SMILES: COC[C@H]1OC(=O)c2coc3c2[C@@]1(C)C1=C(C3=O)[C@@H]2CCC(=O)[C@@]2(C)C[C@H]1OC(C)=O [wortmannin]
- number of dead cells lower than in explants treated with NMDA alone [1]: did not exhibit any significant reduction in nerve cell death
- cell death after exposure to fresh medium at 24 hours ([2]; 24 hours): significantly enhanced cell death
- cell death after exposure to fresh medium at 72 hours ([2]; 72 hours): significantly enhanced cell death
